The target of this assay is T1, HA-IKBKE (UniProt Q14164).
T1 sequence: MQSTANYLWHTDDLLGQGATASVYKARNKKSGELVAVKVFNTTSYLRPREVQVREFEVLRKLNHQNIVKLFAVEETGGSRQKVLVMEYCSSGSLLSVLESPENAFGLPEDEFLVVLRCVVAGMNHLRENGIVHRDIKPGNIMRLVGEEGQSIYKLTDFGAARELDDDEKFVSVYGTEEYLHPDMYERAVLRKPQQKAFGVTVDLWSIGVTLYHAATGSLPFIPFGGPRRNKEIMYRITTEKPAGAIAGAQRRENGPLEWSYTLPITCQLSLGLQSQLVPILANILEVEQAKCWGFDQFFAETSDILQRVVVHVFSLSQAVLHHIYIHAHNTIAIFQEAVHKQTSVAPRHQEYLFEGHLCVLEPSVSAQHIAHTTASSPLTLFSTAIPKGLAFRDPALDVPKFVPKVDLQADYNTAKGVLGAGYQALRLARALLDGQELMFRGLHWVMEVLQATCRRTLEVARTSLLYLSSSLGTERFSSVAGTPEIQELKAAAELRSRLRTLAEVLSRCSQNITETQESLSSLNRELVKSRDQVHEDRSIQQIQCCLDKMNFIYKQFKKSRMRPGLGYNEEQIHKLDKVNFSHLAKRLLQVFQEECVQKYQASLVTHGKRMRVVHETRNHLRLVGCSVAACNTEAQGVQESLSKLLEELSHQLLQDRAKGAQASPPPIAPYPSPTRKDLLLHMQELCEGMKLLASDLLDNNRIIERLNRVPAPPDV
The assay is described as follows: co-IP.

These are yes or no findings as the source states them, for the method shown. In cells and extracts the contact can be indirect. Some entries that bind do so weakly or less than the wild type. Sequences can lack the tags named with a protein.

For Flag-SQSTM1 (from UniProt Q13501 1-440), the binding result is listed as “no binding”.

B1: Flag-CALCOCO2 (protein, UniProt Q13137 1-446)
chain: MEETIKDPPTSAVLLDHCHFSQVIFNSVEKFYIPGGDVTCHYTFTQHFIPRRKDWIGIFRVGWKTTREYYTFMWVTLPIDLNNKSAKQQEVQFKAYYLPKDDEYYQFCYVDEDGVVRGASIPFQFRPENEEDILVVTTQGEVEEIEQHNKELCKENQELKDSCISLQKQNSDMQAELQKKQEELETLQSINKKLELKVKEQKDYWETELLQLKEQNQKMSSENEKMGIRVDQLQAQLSTQEKEMEKLVQGDQDKTEQLEQLKKENDHLFLSLTEQRKDQKKLEQTVEQMKQNETTAMKKQQELMDENFDLSKRLSENEIICNALQRQKERLEGENDLLKRENSRLLSYMGLDFNSLPYQVPTSDEGGARQNPGLAYGNPYSGIQESSSPSPLSIKKCPICKADDICDHTLEQQQMQPLCFNCPICDKIFPATEKQIFEDHVFCHSL
On to B1, for which the binding entry is “binds”.

For the origin of these results see PMC12834145.
